The list shows a part of the results.
Experiments:
Assay in all cases: log2 fold change, soluble protein after heating vs DMSO (PISA); higher = thermal stabilisation; K562 cells, 10 uM, 30 min; active = over 0.2 and 3.5 SD of the protein, either way, in both replicates (recomputed)
[1] = compound: CC[C@@H]1C(=O)N(C)c2cnc(Nc3ccc(C(=O)NC4CCN(C)CC4)cc3OC)nc2N1C1CCCC1
Procedure, shortened: (§1)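 K562 cells at 2×10^6 cells/mL were given 10 μM compound for 30 min. Aliquots then went through 3 min of heating across 48°C-58°C, were pooled, and were extracted in PBS with 0.5% NP-40 at 4°C, and the supernatant after 21,000xg for 90 min was quantified by TMTpro 16plex LC-MS/MS with channel sums equalised. Thermal stability relative to control samples, from duplicates, is given as log2 fold change.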

Protein sequences, listed by entry. Tags and fused reporters are not part of them. Lines headed by an entry give the natural chain unless they say otherwise; changes in a name come on top.
UniProt P32780: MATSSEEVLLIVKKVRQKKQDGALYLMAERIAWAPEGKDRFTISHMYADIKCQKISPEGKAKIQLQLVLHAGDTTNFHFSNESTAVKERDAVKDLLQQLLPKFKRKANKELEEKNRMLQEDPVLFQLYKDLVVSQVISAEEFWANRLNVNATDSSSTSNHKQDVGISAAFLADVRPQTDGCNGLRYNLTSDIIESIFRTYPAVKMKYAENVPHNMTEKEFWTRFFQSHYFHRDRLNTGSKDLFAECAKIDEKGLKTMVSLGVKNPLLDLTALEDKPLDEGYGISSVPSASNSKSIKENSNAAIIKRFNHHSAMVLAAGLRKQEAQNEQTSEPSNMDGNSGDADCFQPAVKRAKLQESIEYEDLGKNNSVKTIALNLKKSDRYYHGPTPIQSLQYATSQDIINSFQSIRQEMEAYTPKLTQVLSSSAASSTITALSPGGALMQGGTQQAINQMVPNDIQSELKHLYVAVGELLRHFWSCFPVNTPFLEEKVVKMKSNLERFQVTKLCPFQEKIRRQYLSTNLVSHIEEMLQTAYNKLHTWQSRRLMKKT
UniProt Q8N3Z3: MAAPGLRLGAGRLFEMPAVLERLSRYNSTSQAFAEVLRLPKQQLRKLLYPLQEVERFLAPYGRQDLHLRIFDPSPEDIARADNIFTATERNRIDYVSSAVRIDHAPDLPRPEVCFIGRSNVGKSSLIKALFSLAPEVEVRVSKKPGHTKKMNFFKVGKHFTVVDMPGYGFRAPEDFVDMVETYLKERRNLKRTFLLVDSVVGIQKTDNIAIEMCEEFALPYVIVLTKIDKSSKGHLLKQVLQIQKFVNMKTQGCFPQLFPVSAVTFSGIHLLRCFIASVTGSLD
UniProt Q6PII5: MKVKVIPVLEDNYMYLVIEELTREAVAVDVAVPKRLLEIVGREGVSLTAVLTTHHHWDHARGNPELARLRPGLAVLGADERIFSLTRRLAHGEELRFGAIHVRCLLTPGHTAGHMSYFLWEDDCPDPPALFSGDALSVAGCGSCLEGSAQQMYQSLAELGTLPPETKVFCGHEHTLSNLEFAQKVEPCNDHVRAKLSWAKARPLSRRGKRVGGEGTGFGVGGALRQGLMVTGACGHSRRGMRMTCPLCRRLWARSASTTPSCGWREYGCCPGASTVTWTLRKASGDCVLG
UniProt Q15011: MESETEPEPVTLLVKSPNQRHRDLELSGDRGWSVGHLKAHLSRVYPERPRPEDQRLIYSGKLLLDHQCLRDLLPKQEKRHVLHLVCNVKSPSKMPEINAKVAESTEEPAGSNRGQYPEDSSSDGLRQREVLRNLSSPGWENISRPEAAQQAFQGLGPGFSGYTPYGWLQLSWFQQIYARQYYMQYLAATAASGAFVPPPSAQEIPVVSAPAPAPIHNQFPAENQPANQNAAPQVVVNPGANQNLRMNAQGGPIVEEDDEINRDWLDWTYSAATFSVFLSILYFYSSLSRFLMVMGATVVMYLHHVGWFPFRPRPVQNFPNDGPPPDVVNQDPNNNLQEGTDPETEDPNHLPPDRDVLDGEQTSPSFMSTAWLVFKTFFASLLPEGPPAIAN
UniProt O43824: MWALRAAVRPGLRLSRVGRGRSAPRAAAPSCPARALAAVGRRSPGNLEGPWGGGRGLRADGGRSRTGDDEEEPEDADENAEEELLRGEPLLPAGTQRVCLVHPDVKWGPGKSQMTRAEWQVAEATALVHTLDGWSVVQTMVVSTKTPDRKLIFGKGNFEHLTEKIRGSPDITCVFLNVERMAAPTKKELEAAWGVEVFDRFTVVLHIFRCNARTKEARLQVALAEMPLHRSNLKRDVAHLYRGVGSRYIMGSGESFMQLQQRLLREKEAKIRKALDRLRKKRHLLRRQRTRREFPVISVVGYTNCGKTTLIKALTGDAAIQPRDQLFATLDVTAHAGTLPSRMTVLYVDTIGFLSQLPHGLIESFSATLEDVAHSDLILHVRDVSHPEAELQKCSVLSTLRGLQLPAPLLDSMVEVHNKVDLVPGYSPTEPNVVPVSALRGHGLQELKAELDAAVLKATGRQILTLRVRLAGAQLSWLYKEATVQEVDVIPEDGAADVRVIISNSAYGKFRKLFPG
UniProt O94927: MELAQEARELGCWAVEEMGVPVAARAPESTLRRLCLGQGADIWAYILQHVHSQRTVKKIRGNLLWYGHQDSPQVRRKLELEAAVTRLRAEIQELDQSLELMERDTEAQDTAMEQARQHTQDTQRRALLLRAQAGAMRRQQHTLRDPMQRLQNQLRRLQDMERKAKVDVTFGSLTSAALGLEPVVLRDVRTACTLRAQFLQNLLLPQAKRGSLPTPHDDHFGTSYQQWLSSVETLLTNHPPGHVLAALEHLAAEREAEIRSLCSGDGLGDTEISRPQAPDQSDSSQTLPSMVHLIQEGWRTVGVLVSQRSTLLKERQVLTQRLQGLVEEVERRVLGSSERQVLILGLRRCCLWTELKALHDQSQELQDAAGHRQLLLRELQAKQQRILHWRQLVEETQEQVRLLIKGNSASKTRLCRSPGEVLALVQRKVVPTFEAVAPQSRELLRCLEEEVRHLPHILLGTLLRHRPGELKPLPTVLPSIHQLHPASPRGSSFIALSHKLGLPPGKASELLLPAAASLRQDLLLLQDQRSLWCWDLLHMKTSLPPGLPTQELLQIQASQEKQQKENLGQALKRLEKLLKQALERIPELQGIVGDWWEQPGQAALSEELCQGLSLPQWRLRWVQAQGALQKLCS
UniProt Q9NVX0: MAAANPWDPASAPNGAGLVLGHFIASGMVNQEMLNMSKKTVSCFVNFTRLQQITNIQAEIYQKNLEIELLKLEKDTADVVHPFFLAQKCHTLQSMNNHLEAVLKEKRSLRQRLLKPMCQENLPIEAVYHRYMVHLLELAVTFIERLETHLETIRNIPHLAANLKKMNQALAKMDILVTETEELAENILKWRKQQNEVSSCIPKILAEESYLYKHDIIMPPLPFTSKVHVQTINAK
UniProt Q5JVS0: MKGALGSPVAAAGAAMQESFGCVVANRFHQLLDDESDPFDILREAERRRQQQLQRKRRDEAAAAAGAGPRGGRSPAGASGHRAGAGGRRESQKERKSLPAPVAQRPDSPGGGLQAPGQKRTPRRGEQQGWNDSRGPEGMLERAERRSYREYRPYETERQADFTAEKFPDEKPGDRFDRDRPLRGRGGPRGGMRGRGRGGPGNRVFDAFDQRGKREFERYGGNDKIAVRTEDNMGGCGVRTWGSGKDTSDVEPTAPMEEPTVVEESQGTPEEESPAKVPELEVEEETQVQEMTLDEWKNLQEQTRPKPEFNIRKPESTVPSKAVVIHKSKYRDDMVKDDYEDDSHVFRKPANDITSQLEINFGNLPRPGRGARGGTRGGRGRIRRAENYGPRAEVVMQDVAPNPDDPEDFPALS
UniProt Q9BY41: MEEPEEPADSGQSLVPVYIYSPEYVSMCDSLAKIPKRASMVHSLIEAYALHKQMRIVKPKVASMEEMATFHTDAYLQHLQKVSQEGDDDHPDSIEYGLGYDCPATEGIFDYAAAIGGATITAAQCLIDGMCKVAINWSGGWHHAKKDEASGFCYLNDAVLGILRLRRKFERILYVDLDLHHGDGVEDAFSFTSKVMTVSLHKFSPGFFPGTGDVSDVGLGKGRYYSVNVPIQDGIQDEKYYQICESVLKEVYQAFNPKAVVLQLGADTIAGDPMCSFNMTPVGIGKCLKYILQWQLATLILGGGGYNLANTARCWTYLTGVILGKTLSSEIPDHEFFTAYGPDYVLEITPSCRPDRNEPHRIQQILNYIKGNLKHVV
UniProt P68871: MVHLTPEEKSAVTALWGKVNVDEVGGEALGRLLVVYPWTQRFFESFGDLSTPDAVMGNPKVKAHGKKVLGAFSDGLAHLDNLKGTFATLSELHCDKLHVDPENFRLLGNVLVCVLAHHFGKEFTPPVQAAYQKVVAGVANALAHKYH
UniProt Q8WVB3: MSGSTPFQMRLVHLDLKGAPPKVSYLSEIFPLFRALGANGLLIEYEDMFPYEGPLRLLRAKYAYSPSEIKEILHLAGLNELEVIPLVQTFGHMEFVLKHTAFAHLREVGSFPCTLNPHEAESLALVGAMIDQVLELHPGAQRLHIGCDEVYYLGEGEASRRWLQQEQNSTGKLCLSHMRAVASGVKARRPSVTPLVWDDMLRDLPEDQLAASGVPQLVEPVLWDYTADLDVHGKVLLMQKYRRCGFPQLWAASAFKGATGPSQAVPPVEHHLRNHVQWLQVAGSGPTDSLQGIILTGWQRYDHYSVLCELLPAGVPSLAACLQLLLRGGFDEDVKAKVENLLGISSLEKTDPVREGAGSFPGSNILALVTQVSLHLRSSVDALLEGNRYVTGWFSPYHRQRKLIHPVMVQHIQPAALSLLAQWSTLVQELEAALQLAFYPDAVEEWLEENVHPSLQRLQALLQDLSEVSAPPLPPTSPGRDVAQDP
UniProt Q9H583: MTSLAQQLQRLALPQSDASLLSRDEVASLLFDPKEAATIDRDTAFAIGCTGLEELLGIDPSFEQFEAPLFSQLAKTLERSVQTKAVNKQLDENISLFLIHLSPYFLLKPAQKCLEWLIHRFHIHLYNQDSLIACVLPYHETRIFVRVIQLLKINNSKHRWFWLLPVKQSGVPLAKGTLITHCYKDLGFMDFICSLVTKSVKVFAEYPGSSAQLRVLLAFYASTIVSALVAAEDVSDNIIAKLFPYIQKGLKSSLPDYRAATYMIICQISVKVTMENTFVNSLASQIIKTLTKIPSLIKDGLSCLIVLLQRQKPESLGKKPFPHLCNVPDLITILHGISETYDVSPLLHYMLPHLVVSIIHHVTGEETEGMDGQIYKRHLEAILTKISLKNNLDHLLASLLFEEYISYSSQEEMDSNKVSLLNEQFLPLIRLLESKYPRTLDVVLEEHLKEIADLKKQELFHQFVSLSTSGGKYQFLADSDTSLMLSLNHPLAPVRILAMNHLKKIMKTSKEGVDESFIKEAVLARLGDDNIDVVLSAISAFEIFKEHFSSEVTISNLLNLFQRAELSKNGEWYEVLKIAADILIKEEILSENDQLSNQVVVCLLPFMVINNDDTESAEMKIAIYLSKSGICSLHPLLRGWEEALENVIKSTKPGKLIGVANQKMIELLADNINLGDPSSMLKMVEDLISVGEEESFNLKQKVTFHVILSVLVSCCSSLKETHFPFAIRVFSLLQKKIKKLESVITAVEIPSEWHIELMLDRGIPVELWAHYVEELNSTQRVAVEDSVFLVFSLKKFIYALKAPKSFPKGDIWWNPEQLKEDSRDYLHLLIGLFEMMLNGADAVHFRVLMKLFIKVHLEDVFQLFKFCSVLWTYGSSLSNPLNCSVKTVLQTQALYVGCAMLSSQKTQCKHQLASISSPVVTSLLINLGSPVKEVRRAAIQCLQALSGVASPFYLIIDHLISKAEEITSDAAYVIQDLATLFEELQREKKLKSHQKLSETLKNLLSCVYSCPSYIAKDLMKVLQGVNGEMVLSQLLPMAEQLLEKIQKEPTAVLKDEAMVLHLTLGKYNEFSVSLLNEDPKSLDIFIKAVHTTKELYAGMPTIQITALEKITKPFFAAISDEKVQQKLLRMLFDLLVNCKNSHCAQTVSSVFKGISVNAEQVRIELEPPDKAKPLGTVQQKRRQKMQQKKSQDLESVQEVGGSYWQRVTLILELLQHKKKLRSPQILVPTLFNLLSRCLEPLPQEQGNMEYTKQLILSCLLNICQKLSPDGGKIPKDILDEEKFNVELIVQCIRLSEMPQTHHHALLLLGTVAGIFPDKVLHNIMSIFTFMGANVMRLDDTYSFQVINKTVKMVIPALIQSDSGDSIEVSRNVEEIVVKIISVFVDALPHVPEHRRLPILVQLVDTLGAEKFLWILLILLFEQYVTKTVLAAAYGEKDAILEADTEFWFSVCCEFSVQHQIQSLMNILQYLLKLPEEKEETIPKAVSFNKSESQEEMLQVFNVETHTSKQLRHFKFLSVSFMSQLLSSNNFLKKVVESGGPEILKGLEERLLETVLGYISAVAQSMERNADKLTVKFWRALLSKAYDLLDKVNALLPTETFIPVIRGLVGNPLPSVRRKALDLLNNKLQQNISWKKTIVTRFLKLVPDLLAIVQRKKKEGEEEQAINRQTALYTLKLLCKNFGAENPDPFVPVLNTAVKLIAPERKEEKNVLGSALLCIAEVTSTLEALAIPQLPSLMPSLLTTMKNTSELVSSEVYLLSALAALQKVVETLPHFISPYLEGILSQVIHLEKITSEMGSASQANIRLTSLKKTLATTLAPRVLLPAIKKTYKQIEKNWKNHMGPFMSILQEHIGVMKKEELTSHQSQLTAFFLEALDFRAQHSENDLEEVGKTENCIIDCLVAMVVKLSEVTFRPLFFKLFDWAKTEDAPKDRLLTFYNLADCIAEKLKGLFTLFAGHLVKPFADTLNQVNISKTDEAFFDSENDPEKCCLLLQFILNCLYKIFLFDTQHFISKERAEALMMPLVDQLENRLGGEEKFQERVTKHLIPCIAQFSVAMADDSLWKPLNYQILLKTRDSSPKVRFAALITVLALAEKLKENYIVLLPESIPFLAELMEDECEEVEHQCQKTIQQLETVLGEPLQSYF

[2] = compound: CCn1c(C(=O)N(C2CC2)C2CC2)cc2c3c(ncn3C)c(Nc3cc(C)n(C)n3)nc21
Procedure, shortened: as §1

[3] = compound: CCn1cc(-c2ccnc3[nH]c(-c4cccc(CN(C)C)c4)cc23)c(-c2ccc(NC(=O)N(C)C)cc2)n1
Procedure, shortened: as §1

[4] = compound: CN(C)CC(=O)Nc1ccc2[nH]c(=O)c3ccccc3c2c1
Procedure, shortened: as §1

[5] = compound: CN1CCC(CNc2ccc3ncc(-c4cccc(OC(F)(F)F)c4)n3n2)CC1
Procedure, shortened: as §1

alvocidib = compound: CN1CC[C@H](c2c(O)cc(O)c3c(=O)cc(-c4ccccc4Cl)oc23)[C@H](O)C1 [alvocidib]
Procedure, shortened: as §1

[6] = compound: CNC(=O)C1=CC=CC=C1NC2=NC(=NC=C2Cl)NC3=C(C=C(C=C3)N4CCOCC4)OC
Procedure, shortened: as §1

defactinib = compound: CNC(=O)c1ccc(Nc2ncc(C(F)(F)F)c(NCc3nccnc3N(C)S(C)(=O)=O)n2)cc1 [defactinib]
Procedure, shortened: as §1

rucaparib = compound: CNCc1ccc(-c2[nH]c3cc(F)cc4c3c2CCNC4=O)cc1 [rucaparib]
Procedure, shortened: as §1

encorafenib = compound: COC(=O)N[C@@H](C)CNc1nccc(-c2cn(C(C)C)nc2-c2cc(Cl)cc(NS(C)(=O)=O)c2F)n1 [encorafenib]
Procedure, shortened: as §1

[7] = compound: COC(=O)[C@H](CCSC)NC(=O)C1=C(C=C(C=C1)NC[C@H](CS)N)C2=CC=CC=C2
Procedure, shortened: as §1

[8] = compound: CN1C2=C(C3=C1C(=O)N(N=C3)CC4=CC(=CC=C4)N)SC(=C2)S(=O)C
Procedure, shortened: as §1

saracatinib = compound: CN1CCN(CCOc2cc(OC3CCOCC3)c3c(Nc4c(Cl)ccc5c4OCO5)ncnc3c2)CC1 [saracatinib]
Procedure, shortened: as §1

sotrastaurin = compound: CN1CCN(c2nc(C3=C(c4c[nH]c5ccccc45)C(=O)NC3=O)c3ccccc3n2)CC1 [sotrastaurin]
Procedure, shortened: as §1

[9] = compound: CNc1nc(-c2ccc3c(N)n[nH]c3c2)cc(N2C[C@@H](C(=O)NC3CCCCC3)CC[C@H]2C)n1
Procedure, shortened: as §1

volasertib = compound: CC[C@@H]1C(=O)N(C)c2cnc(Nc3ccc(C(=O)N[C@H]4CC[C@H](N5CCN(CC6CC6)CC5)CC4)cc3OC)nc2N1C(C)C [volasertib]
Procedure, shortened: as §1

[10] = compound: CC[C@H](C)N1C=C(C2=C(C=C(C=C21)C3=CN=C(C=C3)N4CCNCC4)C(=O)NCC5=C(C=C(NC5=O)C)C)C
Procedure, shortened: as §1

Tubastatin A = compound: CN1CCc2c(c3ccccc3n2Cc2ccc(C(=O)NO)cc2)C1 [Tubastatin A]
Procedure, shortened: as §1

epoxomicin = compound: CC[C@H](C)[C@@H](C(=O)N[C@@H]([C@@H](C)O)C(=O)N[C@@H](CC(C)C)C(=O)[C@]1(CO1)C)NC(=O)[C@H]([C@@H](C)CC)N(C)C(=O)C [epoxomicin]
Procedure, shortened: as §1

rosiglitazone = compound: CN(CCOC1=CC=C(C=C1)C[C@H]2C(=O)NC(=O)S2)C3=CC=CC=N3 (racemic) [rosiglitazone]
Procedure, shortened: as §1

Measured: log2 fold change

GTF2H1 (UniProt P32780)
inactive: [1] -0.278 | [2] -0.094 | [3] 0.081 | [4] -0.122 | [5] 0.03 | alvocidib -0.006 | [6] 0.055 | defactinib 0.176 | rucaparib 0.082 | encorafenib -0.083 | [7] -0.121

GZF1 (UniProt Q9H116)
inactive: [4] 0.126 | [8] 0.137 | saracatinib -0.097 | sotrastaurin -0.034 | defactinib 0.202 | [9] 0.105 | [7] -0.009

GTPBP8 (UniProt Q8N3Z3)
inactive: [1] 0.068 | volasertib -0.17 | [10] 0.376 | [2] 0.307 | [4] -0.03 | Tubastatin A -0.003 | [6] 0.031 | defactinib -0.011 | rucaparib -0.058 | encorafenib -0.098 | [7] -0.208

HAGHL (UniProt Q6PII5)
inactive: [1] 0.068 | volasertib 0.003 | epoxomicin -0.01 | [2] -0.035 | rosiglitazone -0.103 | [8] 0.024 | saracatinib 0.059 | sotrastaurin 0.126 | alvocidib -0.015 | Tubastatin A 0.053 | [6] -0.002 | rucaparib 0.137 | [9] -0.016 | encorafenib 0.02

HGD (UniProt Q93099)
inactive: epoxomicin -0.227 | sotrastaurin -0.046

HERPUD1 (UniProt Q15011)
inactive: volasertib 0.007 | [2] -0.061 | [4] 0.007 | Tubastatin A 0.132 | [6] 0.126 | defactinib -0.115 | [7] -0.01

HGFAC (UniProt Q04756)
inactive: volasertib 0.039 | [10] -0.034 | epoxomicin -0.172 | [2] -0.15 | rosiglitazone 0.061 | [8] 0.601 | saracatinib 0.342 | Tubastatin A -0.302 | [6] 0.047 | [9] 0.179

HGF (UniProt P14210)
inactive: [1] 0.03 | [10] -0.081 | epoxomicin -0.152 | rosiglitazone 0.002 | [8] 0.195 | saracatinib 0.342 | sotrastaurin 0.127 | alvocidib 0.045 | Tubastatin A -0.15 | rucaparib -0.129 | [9] 0.041 | encorafenib 0.011

GTPBP6 (UniProt O43824)
inactive: [1] -0.07 | [10] -0.041 | epoxomicin 0.026 | [3] -0.079 | [4] 0.034 | [8] -0.13 | [5] -0.007 | saracatinib 0.049 | sotrastaurin -0.011 | Tubastatin A -0.03 | [6] -0.149 | defactinib -0.013 | rucaparib 0.053 | [9] 0.007 | encorafenib -0.086 | [7] 0.057

HAUS5 (UniProt O94927)
inactive: [1] 0.187 | volasertib -0.002 | [10] 0.068 | [3] 0.257 | [8] 0.372 | [5] 0.42 | saracatinib -0.068 | sotrastaurin 0.298 | Tubastatin A 0.021 | rucaparib 0.029 | [9] 0.136 | encorafenib -0.08

HDAC10 (UniProt Q969S8)
inactive: [1] -0.113 | volasertib -0.041 | [10] 0.028 | [3] -0.179 | [4] 0.224 | [8] -0.107 | [5] 0.055 | saracatinib -0.04 | Tubastatin A 0.458 | [6] 0.108 | defactinib 0.067 | rucaparib 0.024 | [9] -0.02 | encorafenib 0.024 | [7] -0.137

HAUS2 (UniProt Q9NVX0)
inactive: [1] 0.131 | volasertib -0.398 | [2] 0.124 | [8] 0.3 | saracatinib -0.033 | alvocidib -0.015 | [6] -0.147 | rucaparib 0.205 | [9] 0.069 | encorafenib 0.05

Quoted from the entries so far (2 entries):
HAGHL (UniProt Q6PII5)
inactive: [1] 0.068 | volasertib 0.003 | epoxomicin -0.01 | [2] -0.035 | rosiglitazone -0.103 | [8] 0.024 | saracatinib 0.059 | sotrastaurin 0.126 | alvocidib -0.015 | Tubastatin A 0.053 | [6] -0.002 | rucaparib 0.137 | [9] -0.016 | encorafenib 0.02

HGD (UniProt Q93099)
inactive: epoxomicin -0.227 | sotrastaurin -0.046

(further entries)

HABP4 (UniProt Q5JVS0)
inactive: epoxomicin 0.05 | [2] -0.021 | rosiglitazone 0.186 | [6] 0.023

HDAC8 (UniProt Q9BY41)
inactive: epoxomicin -0.008

HBB (UniProt P68871)
inactive: [1] 0.048 | rucaparib 0.631 | encorafenib -0.082

HEXD isoform 2 (UniProt Q8WVB3)
inactive: volasertib -0.008 | epoxomicin 0.057 | [2] -0.032 | [3] 0.043 | [4] -0.394 | [8] -0.118 | [5] 0.063 | saracatinib 0.112 | sotrastaurin -0.059 | [6] 0.231 | defactinib -0.181 | [9] -0.134 | [7] 0.075

HEATR1 (UniProt Q9H583)
inactive: volasertib -0.194 | [10] -0.197 | epoxomicin -0.115 | [2] -0.251 | [3] -0.062 | [4] 0.112 | rosiglitazone -0.065 | [8] 0.243 | [5] -0.122 | saracatinib -0.005 | sotrastaurin 0.074 | Tubastatin A -0.119 | [6] -0.21 | defactinib -0.176 | [9] 0 | [7] -0.018
